Laboratory results: the supplement of paper PMC10849652
Some of the results follow.

Sequences of proteins named here, by UniProt entry; tags and fusion partners are left off. A change or cut given only in a name is not applied to a line headed by its entry.
UniProt Q9ULH0: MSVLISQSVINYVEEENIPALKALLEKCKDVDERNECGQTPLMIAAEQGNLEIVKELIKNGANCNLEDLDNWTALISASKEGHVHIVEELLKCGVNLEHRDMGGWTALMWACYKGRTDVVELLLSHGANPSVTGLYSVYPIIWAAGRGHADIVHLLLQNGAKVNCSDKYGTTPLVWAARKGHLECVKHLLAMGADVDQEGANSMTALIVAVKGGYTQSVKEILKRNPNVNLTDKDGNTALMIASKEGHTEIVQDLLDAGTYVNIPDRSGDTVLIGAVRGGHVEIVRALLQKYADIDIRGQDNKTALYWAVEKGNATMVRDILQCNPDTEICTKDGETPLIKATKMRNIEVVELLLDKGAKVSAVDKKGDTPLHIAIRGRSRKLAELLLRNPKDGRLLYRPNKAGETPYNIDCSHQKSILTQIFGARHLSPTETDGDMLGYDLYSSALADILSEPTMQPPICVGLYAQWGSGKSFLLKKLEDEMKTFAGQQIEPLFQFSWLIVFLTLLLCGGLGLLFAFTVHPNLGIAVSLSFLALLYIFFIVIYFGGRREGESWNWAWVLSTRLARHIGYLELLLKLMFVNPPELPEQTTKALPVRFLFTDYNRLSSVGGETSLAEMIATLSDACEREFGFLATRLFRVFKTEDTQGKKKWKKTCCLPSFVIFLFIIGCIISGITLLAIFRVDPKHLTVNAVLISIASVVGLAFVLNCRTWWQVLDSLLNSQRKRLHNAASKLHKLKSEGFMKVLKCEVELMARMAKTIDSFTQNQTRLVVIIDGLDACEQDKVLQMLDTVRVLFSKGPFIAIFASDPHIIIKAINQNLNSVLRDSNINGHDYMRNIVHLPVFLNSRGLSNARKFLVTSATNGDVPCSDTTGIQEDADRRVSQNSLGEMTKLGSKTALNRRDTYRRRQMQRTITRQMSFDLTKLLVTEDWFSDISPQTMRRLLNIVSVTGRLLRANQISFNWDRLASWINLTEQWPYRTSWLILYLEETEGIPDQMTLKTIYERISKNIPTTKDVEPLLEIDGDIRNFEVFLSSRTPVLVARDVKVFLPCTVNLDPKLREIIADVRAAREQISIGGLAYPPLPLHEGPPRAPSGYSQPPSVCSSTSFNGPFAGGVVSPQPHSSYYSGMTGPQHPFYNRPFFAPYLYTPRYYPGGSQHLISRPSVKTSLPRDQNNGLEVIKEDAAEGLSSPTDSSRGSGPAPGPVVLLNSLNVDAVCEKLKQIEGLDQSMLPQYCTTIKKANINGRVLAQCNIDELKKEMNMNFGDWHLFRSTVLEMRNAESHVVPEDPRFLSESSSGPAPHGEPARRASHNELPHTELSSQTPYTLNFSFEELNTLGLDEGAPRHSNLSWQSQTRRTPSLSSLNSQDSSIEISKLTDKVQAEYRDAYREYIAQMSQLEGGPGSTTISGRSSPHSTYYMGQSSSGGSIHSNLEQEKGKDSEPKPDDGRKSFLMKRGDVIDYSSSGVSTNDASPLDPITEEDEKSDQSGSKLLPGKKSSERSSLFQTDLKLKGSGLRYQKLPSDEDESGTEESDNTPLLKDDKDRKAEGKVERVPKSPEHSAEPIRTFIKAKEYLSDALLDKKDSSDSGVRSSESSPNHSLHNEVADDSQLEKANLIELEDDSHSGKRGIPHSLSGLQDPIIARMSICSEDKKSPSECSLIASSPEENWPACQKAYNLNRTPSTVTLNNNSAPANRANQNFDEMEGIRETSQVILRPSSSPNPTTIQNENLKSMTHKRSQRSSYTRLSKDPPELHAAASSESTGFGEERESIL
UniProt Q9Y6Y0: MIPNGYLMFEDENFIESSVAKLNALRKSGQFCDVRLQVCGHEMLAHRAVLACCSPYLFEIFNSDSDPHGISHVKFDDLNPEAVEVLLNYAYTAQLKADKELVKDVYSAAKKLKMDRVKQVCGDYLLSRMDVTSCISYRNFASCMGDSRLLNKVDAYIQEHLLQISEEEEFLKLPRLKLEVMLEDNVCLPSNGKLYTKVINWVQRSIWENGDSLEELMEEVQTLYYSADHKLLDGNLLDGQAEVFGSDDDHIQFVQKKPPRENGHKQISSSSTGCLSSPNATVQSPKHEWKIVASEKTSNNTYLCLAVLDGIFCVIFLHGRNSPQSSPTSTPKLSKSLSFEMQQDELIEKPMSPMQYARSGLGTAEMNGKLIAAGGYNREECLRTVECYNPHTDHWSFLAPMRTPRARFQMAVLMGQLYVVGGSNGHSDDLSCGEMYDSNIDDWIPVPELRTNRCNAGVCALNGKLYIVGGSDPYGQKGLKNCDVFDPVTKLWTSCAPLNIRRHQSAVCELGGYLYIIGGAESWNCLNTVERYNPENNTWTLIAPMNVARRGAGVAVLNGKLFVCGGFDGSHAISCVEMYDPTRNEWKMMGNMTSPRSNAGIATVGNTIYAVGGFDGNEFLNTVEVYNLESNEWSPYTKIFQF
UniProt Q96SI1: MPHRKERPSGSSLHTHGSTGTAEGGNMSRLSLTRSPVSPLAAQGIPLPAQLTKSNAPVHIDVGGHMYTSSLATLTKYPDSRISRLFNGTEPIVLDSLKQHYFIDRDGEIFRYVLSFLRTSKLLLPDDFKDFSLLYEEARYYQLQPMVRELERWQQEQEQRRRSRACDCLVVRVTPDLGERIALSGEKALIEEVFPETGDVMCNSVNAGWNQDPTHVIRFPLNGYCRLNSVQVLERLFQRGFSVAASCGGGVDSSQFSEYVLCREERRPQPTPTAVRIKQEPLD
UniProt Q9Y448: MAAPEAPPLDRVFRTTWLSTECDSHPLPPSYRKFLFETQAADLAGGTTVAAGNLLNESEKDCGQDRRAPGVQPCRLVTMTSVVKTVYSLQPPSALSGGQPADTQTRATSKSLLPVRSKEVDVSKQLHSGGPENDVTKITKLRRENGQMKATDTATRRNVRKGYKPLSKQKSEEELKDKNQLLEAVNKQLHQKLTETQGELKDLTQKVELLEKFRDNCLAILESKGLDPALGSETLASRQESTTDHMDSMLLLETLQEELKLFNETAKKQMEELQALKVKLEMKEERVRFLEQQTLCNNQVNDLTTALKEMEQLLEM
UniProt Q8IZA0: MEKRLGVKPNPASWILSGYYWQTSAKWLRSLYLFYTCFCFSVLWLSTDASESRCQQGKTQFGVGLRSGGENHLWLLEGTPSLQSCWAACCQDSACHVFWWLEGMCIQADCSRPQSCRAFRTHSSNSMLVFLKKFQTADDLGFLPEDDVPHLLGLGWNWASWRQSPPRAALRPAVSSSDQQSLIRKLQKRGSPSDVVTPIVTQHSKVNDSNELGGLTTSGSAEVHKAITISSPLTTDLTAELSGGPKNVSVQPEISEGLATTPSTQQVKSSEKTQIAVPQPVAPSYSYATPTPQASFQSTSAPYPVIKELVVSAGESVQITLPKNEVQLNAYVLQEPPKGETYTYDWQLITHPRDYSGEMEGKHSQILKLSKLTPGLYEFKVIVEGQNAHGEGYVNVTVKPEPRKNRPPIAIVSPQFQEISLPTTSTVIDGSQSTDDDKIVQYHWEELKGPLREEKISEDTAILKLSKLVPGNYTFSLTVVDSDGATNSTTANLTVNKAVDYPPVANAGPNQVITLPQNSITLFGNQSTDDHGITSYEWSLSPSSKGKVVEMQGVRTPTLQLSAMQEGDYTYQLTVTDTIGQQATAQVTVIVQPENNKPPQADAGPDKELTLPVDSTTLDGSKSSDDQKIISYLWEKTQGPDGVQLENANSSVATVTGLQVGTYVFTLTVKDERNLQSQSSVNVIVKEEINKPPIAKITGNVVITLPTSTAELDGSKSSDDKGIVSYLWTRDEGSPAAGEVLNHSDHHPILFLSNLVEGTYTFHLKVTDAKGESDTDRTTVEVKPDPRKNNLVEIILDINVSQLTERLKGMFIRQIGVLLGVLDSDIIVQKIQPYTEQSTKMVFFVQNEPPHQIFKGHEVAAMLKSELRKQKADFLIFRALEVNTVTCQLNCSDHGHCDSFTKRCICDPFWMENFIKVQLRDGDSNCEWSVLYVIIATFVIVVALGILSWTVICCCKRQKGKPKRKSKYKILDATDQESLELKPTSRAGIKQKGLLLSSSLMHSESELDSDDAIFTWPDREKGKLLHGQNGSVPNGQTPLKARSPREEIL
UniProt Q8N371: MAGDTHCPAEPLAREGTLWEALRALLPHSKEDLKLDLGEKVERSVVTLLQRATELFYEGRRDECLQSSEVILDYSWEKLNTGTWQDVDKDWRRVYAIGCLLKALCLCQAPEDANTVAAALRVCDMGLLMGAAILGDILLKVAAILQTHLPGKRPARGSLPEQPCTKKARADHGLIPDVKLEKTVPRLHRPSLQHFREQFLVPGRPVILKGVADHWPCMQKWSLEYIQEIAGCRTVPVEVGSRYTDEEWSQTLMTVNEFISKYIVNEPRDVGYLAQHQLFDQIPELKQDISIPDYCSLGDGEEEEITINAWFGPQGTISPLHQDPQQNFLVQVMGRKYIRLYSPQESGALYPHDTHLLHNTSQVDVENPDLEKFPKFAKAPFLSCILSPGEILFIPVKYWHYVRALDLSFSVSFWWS
UniProt Q4G0X4: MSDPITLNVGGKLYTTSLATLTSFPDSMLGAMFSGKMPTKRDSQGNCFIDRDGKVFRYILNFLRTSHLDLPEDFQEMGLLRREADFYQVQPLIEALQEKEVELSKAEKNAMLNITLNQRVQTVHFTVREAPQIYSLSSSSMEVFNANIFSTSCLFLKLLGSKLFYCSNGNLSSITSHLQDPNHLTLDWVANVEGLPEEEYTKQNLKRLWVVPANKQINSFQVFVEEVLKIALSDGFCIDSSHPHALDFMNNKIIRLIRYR
UniProt Q9P206: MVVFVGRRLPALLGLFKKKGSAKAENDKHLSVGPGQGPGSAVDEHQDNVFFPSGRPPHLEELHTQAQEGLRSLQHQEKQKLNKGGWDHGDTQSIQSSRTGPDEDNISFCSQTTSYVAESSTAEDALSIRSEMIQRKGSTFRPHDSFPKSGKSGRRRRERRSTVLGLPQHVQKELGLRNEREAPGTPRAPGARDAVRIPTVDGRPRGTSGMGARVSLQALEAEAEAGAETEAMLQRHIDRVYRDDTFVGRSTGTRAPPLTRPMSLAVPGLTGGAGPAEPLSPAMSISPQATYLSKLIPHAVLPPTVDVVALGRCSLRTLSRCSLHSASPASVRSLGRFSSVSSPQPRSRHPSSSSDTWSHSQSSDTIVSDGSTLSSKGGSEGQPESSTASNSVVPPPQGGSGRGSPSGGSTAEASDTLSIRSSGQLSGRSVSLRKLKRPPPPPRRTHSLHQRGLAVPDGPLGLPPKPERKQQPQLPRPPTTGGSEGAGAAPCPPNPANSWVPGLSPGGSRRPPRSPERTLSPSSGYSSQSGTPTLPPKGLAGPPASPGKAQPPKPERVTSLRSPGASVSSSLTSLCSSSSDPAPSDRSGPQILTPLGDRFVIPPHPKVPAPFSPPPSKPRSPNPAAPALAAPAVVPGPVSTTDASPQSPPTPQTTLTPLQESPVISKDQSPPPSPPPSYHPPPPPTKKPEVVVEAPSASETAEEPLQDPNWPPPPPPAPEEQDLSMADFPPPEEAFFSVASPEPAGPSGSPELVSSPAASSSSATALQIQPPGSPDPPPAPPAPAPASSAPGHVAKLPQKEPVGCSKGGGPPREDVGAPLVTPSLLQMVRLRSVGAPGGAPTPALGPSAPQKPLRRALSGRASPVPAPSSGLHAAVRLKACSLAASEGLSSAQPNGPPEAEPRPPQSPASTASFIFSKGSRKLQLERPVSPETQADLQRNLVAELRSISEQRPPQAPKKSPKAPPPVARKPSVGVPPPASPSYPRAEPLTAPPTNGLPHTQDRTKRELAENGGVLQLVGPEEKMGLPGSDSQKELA
UniProt O75449: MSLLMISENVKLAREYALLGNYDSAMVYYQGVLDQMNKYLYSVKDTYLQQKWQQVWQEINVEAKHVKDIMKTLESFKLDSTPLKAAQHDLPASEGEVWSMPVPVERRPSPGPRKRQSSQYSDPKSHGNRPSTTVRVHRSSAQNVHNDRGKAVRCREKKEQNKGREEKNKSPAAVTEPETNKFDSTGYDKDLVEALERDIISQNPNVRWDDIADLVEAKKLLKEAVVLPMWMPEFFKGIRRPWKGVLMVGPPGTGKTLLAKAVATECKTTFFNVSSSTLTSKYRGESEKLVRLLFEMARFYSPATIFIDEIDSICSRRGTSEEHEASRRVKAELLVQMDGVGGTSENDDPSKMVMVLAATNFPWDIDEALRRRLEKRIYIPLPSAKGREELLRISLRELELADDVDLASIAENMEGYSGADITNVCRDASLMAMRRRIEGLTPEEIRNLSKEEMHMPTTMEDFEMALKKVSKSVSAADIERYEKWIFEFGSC
UniProt Q9H910: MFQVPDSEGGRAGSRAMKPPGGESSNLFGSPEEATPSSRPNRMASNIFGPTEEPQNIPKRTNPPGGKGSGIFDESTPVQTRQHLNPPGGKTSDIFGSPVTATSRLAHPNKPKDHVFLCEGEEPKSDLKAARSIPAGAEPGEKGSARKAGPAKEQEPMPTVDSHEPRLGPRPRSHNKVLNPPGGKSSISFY

Assays:
Assay in all cases: log2 fold change, soluble protein after heating vs DMSO (PISA); higher = thermal stabilisation; K562 cells, 10 uM, 30 min; active = over 0.2 and 3.5 SD of the protein, either way, in both replicates (recomputed)
[1] = compound: CC1=C(C=C(C=C1)NC(=O)C2=CC(=CC=C2)C(C)(C)C#N)NC3=CC4=C(C=C3)N=CN(C4=O)C
How it was run: (§1)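 Soluble protein was defined as the supernatant after 21,000xg for 90 min. It came from K562 cells at 2×10^6 cells/mL given 10 μM compound for 30 min, heated in aliquots for 3 min across 48°C-58°C, pooled, and extracted in PBS with 0.5% NP-40 at 4°C, and was quantified by TMTpro 16plex LC-MS/MS with equalised channel sums. Thermal stability against control samples, from duplicates, is reported as log2 fold change.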

[2] = compound: CC1=C(C=C(C=C1)NC(=O)C2=CC(=CC=C2)N(C)C)NC(=O)C3=CC=C(C=C3)O
How it was run: as §1

[3] = compound: CC1=CC=C(C=C1)SC2=C3C=C(SC3=CN=C2)C(=O)N
How it was run: as §1

[4] = compound: CC1=NC(=CC=C1)C2=C(N=C(N2)C(C)(C)C)C3=CC4=NC=CN=C4C=C3
How it was run: as §1

[5] = compound: CCCCN(Cc1ccc(C(=O)NO)cc1)C(=O)Nc1ccccc1 [Nexturastat A]
How it was run: as §1

[6] = compound: CCCS(=O)(=O)Nc1ccc(F)c(C(=O)c2c[nH]c3ncc(-c4ccc(Cl)cc4)cc23)c1F [vemurafenib]
How it was run: as §1

[7] = compound: CCCS(=O)(=O)Nc1ccc(F)c(C(=O)c2c[nH]c3ncc(Cl)cc23)c1F
How it was run: as §1

[8] = compound: CCCc1cc(C)[nH]c(=O)c1CNC(=O)c1cc(-c2ccnc(N3CCN(C)CC3)c2)cc2c1cnn2C(C)C
How it was run: as §1

[9] = compound: CCN(CC)Cc1ccc2cc(COC(=O)Nc3ccc(C(=O)NO)cc3)ccc2c1 [givinostat]
How it was run: as §1

[10] = compound: CCN(CCCOc1ccc2c(Nc3cc(CC(=O)Nc4cccc(F)c4)[nH]n3)ncnc2c1)CCOP(=O)(O)O [barasertib]
How it was run: as §1

[11] = compound: CC[C@@H]1C(=O)N(C)c2cnc(Nc3ccc(C(=O)NC4CCN(C)CC4)cc3OC)nc2N1C1CCCC1
How it was run: as §1

[12] = compound: CC[C@@H]1C(=O)N(C)c2cnc(Nc3ccc(C(=O)N[C@H]4CC[C@H](N5CCN(CC6CC6)CC5)CC4)cc3OC)nc2N1C(C)C [volasertib]
How it was run: as §1

[13] = compound: CC[C@H](C)N1C=C(C2=C(C=C(C=C21)C3=CN=C(C=C3)N4CCNCC4)C(=O)NCC5=C(C=C(NC5=O)C)C)C
How it was run: as §1

[14] = compound: CC[C@H](C)[C@@H](C(=O)N[C@@H]([C@@H](C)O)C(=O)N[C@@H](CC(C)C)C(=O)[C@]1(CO1)C)NC(=O)[C@H]([C@@H](C)CC)N(C)C(=O)C [epoxomicin]
How it was run: as §1

[15] = compound: CCn1c(C(=O)N(C2CC2)C2CC2)cc2c3c(ncn3C)c(Nc3cc(C)n(C)n3)nc21
How it was run: as §1

[16] = compound: CCn1cc(-c2ccnc3[nH]c(-c4cccc(CN(C)C)c4)cc23)c(-c2ccc(NC(=O)N(C)C)cc2)n1
How it was run: as §1

[17] = compound: CN(C)CC(=O)Nc1ccc2[nH]c(=O)c3ccccc3c2c1
How it was run: as §1

[18] = compound: CN(CCOC1=CC=C(C=C1)C[C@H]2C(=O)NC(=O)S2)C3=CC=CC=N3 (racemic) [rosiglitazone]
How it was run: as §1

[19] = compound: CN1C2=C(C3=C1C(=O)N(N=C3)CC4=CC(=CC=C4)N)SC(=C2)S(=O)C
How it was run: as §1

[20] = compound: CN1CCC(CNc2ccc3ncc(-c4cccc(OC(F)(F)F)c4)n3n2)CC1
How it was run: as §1

Measured: log2 fold change

KIDINS220 (UniProt Q9ULH0)
inactive: [1] -0.012 | [2] -0.008 | [3] -0.021 | [4] -0.028 | [5] -0.028 | [6] -0.034 | [7] -0.022 | [8] 0.002 | [9] -0.027 | [10] 0.004 | [11] 0.046 | [12] 0.024 | [13] 0.002 | [14] 0 | [15] 0.007 | [16] -0.031 | [17] -0.028 | [18] -0.008 | [19] -0.025 | [20] 0.115

JPT1 (UniProt Q9UK76)
inactive: [1] 0.007 | [2] -0.013 | [3] -0.015 | [4] 0.029 | [5] 0.012 | [6] 0.026 | [7] -0.039 | [8] -0.018 | [9] -0.002 | [10] 0.023 | [11] 0.015 | [12] 0.075 | [13] -0.037 | [14] 0.072 | [15] 0.044 | [16] -0.003 | [17] -0.012 | [18] -0.009 | [19] -0.057 | [20] -0.003

IVNS1ABP (UniProt Q9Y6Y0)
inactive: [1] -0.021 | [2] -0.06 | [3] 0.012 | [4] -0.195 | [5] 0.192 | [6] 0.038 | [7] 0.021 | [8] 0.001 | [9] 0.107 | [10] 0.041 | [11] 0.244 | [12] -0.09 | [13] 0.007 | [14] 0.04 | [15] 0.044 | [16] 0.022 | [17] 0.068 | [18] -0.17 | [19] 0.069 | [20] -0.061

KLC1 isoform 6 (UniProt Q07866)
inactive: [1] 0.024 | [2] -0.009 | [3] 0.008 | [4] 0.029 | [5] -0.068 | [6] 0.014 | [7] 0.026 | [8] 0 | [9] -0.003 | [10] 0.03 | [11] 0.016 | [12] 0.025 | [13] 0.016 | [14] 0.068 | [15] 0.01 | [16] -0.026 | [17] 0.008 | [18] 0.012 | [19] -0.039 | [20] -0.054

KCTD15 (UniProt Q96SI1)
inactive: [1] -0.093 | [2] 0.084 | [3] -0.014 | [4] -0.054 | [5] -0.081 | [6] -0.031 | [7] -0.033 | [8] -0.041 | [9] -0.031 | [10] 0.038 | [11] 0.099 | [12] 0.038 | [13] 0.019 | [14] 0.088 | [15] -0.002 | [16] 0.016 | [17] -0.008 | [18] -0.028 | [19] -0.012 | [20] -0.04

KNSTRN (UniProt Q9Y448)
inactive: [1] 0.009 | [2] -0.018 | [3] 0.045 | [4] -0.042 | [5] 0.202 | [6] 0.031 | [7] -0.027 | [8] 0.072 | [9] 0.014 | [10] 0.009 | [11] 0.07 | [12] -0.05 | [13] -0.014 | [14] 0.011 | [15] 0.008 | [16] 0.052 | [17] -0.062 | [18] -0.014 | [19] 0.147 | [20] -0.061

2 successive records from above:
IVNS1ABP (UniProt Q9Y6Y0)
inactive: [1] -0.021 | [2] -0.06 | [3] 0.012 | [4] -0.195 | [5] 0.192 | [6] 0.038 | [7] 0.021 | [8] 0.001 | [9] 0.107 | [10] 0.041 | [11] 0.244 | [12] -0.09 | [13] 0.007 | [14] 0.04 | [15] 0.044 | [16] 0.022 | [17] 0.068 | [18] -0.17 | [19] 0.069 | [20] -0.061

KLC1 isoform 6 (UniProt Q07866)
inactive: [1] 0.024 | [2] -0.009 | [3] 0.008 | [4] 0.029 | [5] -0.068 | [6] 0.014 | [7] 0.026 | [8] 0 | [9] -0.003 | [10] 0.03 | [11] 0.016 | [12] 0.025 | [13] 0.016 | [14] 0.068 | [15] 0.01 | [16] -0.026 | [17] 0.008 | [18] 0.012 | [19] -0.039 | [20] -0.054

The list goes on.

KIF5A (UniProt Q12840)
inactive: [1] -0.016 | [2] -0.019 | [3] -0.026 | [4] 0.001 | [5] -0.051 | [6] 0.005 | [7] -0.007 | [8] -0.001 | [9] 0.011 | [10] 0.039 | [11] -0.006 | [12] 0.026 | [13] 0.021 | [14] 0.009 | [15] -0.02 | [16] -0.046 | [17] -0.006 | [18] 0.035 | [19] -0.041 | [20] 0.013

KIAA0319L (UniProt Q8IZA0)
inactive: [1] -0.034 | [2] 0.023 | [3] -0.032 | [4] 0.013 | [5] 0.011 | [6] -0.006 | [7] 0.028 | [8] -0.002 | [9] -0.033 | [10] -0.006 | [11] -0.044 | [12] -0.11 | [13] -0.039 | [14] 0.003 | [15] 0.054 | [16] 0.027 | [17] -0.016 | [18] -0.012 | [19] -0.003 | [20] -0.194

KDM8 isoform 3 (UniProt Q8N371)
inactive: [1] -0.013 | [2] 0.005 | [3] 0.017 | [4] 0.05 | [5] -0.04 | [6] -0.007 | [7] 0.014 | [8] -0.149 | [9] 0 | [10] 0.013 | [11] 0.004 | [12] -0.002 | [13] 0.042 | [14] 0.006 | [15] 0.007 | [16] -0.069 | [17] -0.008 | [18] 0.034 | [19] -0.089 | [20] -0.002

KCTD21 (UniProt Q4G0X4)
inactive: [1] -0.017

KIAA1522 isoform 2 (UniProt Q9P206)
inactive: [1] -0.035 | [2] -0.047 | [3] -0.079 | [4] -0.001 | [5] 0.187 | [6] -0.135 | [7] 0.007 | [8] 0.152 | [9] 0.078 | [10] 0.005 | [11] 0.108 | [12] -0.033 | [13] -0.028 | [14] -0.112 | [15] -0.015 | [16] 0.032 | [17] -0.087 | [18] 0.053 | [19] 0.119 | [20] -0.056

KIAA1143 (UniProt Q96AT1)
inactive: [1] -0.139 | [2] -0.051 | [3] -0.058 | [4] -0.033 | [5] 0.081 | [6] -0.06 | [7] -0.092 | [8] -0.002 | [9] 0.01 | [10] 0.009 | [11] -0.006 | [12] 0.09 | [13] -0.042 | [14] -0.059 | [15] -0.004 | [16] -0.048 | [17] -0.043 | [18] -0.018 | [19] -0.019 | [20] -0.107

KATNA1 (UniProt O75449)
inactive: [1] -0.007 | [2] -0.069 | [3] -0.045 | [4] -0.023 | [5] 0.047 | [6] -0.008 | [7] -0.031 | [8] 0.111 | [9] -0.073 | [10] 0.026 | [11] 0.14 | [12] -0.078 | [13] -0.06 | [14] -0.048 | [15] 0.023 | [16] -0.029 | [17] -0.018 | [18] 0.089 | [19] -0.003 | [20] 0.052

JAGN1 (UniProt Q8N5M9)
inactive: [1] 0.012 | [2] -0.025 | [3] 0.014 | [4] -0.061 | [5] -0.156 | [6] 0.042 | [7] -0.042 | [8] -0.021 | [9] -0.06 | [10] -0.031 | [11] 0.058 | [12] 0.018 | [13] -0.037 | [14] 0.073 | [15] 0.046 | [16] -0.105 | [17] 0.006 | [18] 0.013 | [19] -0.106 | [20] 0.065

JPT2 isoform 3 (UniProt Q9H910)
inactive: [1] -0.012 | [2] -0.002 | [3] -0.002 | [4] 0.02 | [5] -0.007 | [6] -0.013 | [7] -0.02 | [8] 0.005 | [9] -0.008 | [10] 0.01 | [11] -0.008 | [12] 0.112 | [13] -0.029 | [14] 0.014 | [15] 0.048 | [16] 0.042 | [17] -0.053 | [18] -0.012 | [19] -0.039 | [20] -0.037

KIF13A isoform 4 (UniProt Q9H1H9)
inactive: [1] 0.035

KCNAB2 (UniProt Q13303)
inactive: [1] -0.026 | [2] 0 | [3] 0.001 | [4] -0.014 | [5] -0.02 | [6] 0.054 | [7] 0.026 | [8] -0.083 | [9] -0.007 | [10] -0.037 | [11] 0.084 | [12] 0.001 | [13] -0.02 | [14] -0.007 | [15] 0.018 | [16] -0.012 | [17] 0.096 | [18] 0.022 | [19] -0.094 | [20] -0.056
